# Counter-ions that a name gives are not always drawn. Some of the results follow. Repeats in this data set agree poorly, so a single value says little.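 A first-round screen of about ten thousand compounds sought those raising reporter output, using human embryonic kidney cells briefly transfected with a plasmid carrying a Renilla luciferase gene driven by the HSV-TK promoter.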
# System: HEK 293FT
# Assay: log relative Renilla luciferase luminescence (reporter expression vs reference, reference not stated) (log (base not stated)); higher = higher recombinant reporter expression
# Details: 10 µM; time after transfection 48 h
row,SMILES,log
1,Nc1ccc(/C=C/c2ccc(N)cc2S(=O)(=O)O)c(S(=O)(=O)O)c1 [Amsonate],0.0245
2,CCCCCCC(=O)O[C@]1(C(C)=O)CC[C@H]2[C@@H]3CCC4=CC(=O)CC[C@]4(C)[C@H]3CC[C@@]21C [Hydroxyprogesterone heptanoate],0.0267
3,CN1CCN(c2cc3c(cc2F)c(=O)c(C(=O)O)cn3-c2ccc(F)cc2)CC1 [Difloxacin hydrochloride],-0.371
4,O=c1[nH]c(=O)n([C@H]2C[C@H](O)[C@@H](CO)O2)cc1Br [Broxuridine],0.227
5,O=C1c2ccccc2C(=O)C1c1cccc2ccccc12 [Naphthylin],0.0427
6,CC(C)c1nc(CN(C)C(=O)N[C@H](C(=O)N[C@@H](Cc2ccccc2)C[C@H](O)[C@H](Cc2ccccc2)NC(=O)OCc2cncs2)C(C)C)cs1 [Ritonavir],0.0234
7,O=C1Nc2ccccc2C1(c1ccc(O)cc1)c1ccc(O)cc1 [Oxyphenisatine],0.115
8,Nc1cccc2c(=O)[nH][nH]c(=O)c12 [Luminol],-0.0538
9,COc1cc(/C=N/NC(=O)c2ccncc2)ccc1O [Ftivazide],0.118
10,O=C(N/N=C/c1ccc2c(c1)OCO2)c1ccncc1 [Piperazide],-0.0538
11,NS(=O)(=O)c1ccc(NC(=O)CCC(=O)O)cc1 [Sulfasuccinamide],-0.194
12,Cc1cc(=O)oc2n[nH]c(C)c12,-0.106
13,CC(=O)CC(c1ccccc1)c1c(O)c2ccccc2oc1=O (centres undefined) [Warfarin],0.0679
14,Cc1noc(NS(=O)(=O)c2ccc(N)cc2)c1C [Sulfafurazole],-2.38

# Taken from above.
# log with `Nc1cccc2c(=O)[nH][nH]c(=O)c12` [Luminol] reads -0.0538
# log with `Nc1ccc(/C=C/c2ccc(N)cc2S(=O)(=O)O)c(S(=O)(=O)O)c1` [Amsonate] reads 0.0245

# Source: the supplement of paper PMC7024190
